Results reported in patent US20090022803A1, “Oral Formulations For Delivery of Catecholic Butanes Including Ndga Compounds” (priority 2005, published 2009).
Like-named read-outs stand apart in the source and are kept apart here. This continues a long series; more values of the same kind are listed elsewhere.

Assay type: physicochemical
Conditions: for Dissolution After Cool-Down: after heating at 70° C.
Procedure: A 10 mL solution of M4N at a concentration of about 10 mg/mL in 40% BP-β-CD was made as follows. About 10 mL of the 40% HP-β-CD solution were added to a glass beaker containing a stir bar. The beaker was placed on a magnetic plate and the stir bar was set to stir at medium speed. About […] of M4N were slowly added to the 40% HP-β-CD in the center of the beaker with the aid of a spatula. The M4N/40% HP-β-CD mixture was stirred for 2 hr or until all M4N was uniformly suspended without any clumps being present. The M4N/40% HP-β-CD mixture was optionally heated at 80° C. for about 30 min. (or longer if a larger volume of solution was desired, for example, 1 hr at 80° C. for 100 mL of the M4N/HP-β-CD mixture), or longer as needed to ensure complete dissolution of M4N. […] The final M4N/40% HP-β-CD solution was stored at room temperature and was kept protected from light. This process may be scaled up or down to obtain the requisite volume or concentration of M4N. Formulations containing M4N in other cyclodextrin solutions may be similarly made, such as, for example, by substituting HP-β-CD in the process described above with other cyclodextrins. […]
A 10 mL solution of M4N at a concentration of about 10 mg/mL in 50% HP-β-CD/0.5% HPMC was made as follows. About 10 mL of the 50% HP-β-CD/0.5% HPMC solution were added to a glass beaker containing a stir bar. The beaker was placed on a magnetic plate and the stir bar was set to stir at medium speed. About 100 mg of M4N were slowly added to the 50% HP-β-CD/0.5% HPMC in the center of the beaker with the aid of a spatula. The M4N/50% HP-β-CD/0.5% HPMC mixture was stirred for 24 hr or until all M4N was uniformly suspended without any clumps being present. The M4N/50% HP-β-CD/0.5% HPMC mixture was heated at about 90° C. for about 30 min. (or longer if a larger volume of solution was desired, for example, 1 hr at 90° C. for 500 mL of the M4N/50% HP-β-CD/0.5% HPMC mixture), or longer as needed to ensure complete dissolution of M4N. […] The final M4N/50% HP-β-CD/0.5% HPMC solution was stored at room temperature and was kept protected from light.
A 10 mL solution of M4N at a concentration of about 20 mg/mL in 5% EC (w/v) (the “EC formulation”) was made as follows. About 10 mL of 5% EC formulation, made as described above, were added to a glass beaker containing a stir bar. The beaker was placed on a magnetic plate and the stir bar was set to stir at medium speed, and covered with a round Teflon® cover. About 200 mg of M4N were slowly added to the 5% EC formulation in the center of the beaker with the aid of a spatula to prevent M4N from sticking to the beaker wall. The M4N/EC mixture was stirred for 2 hr or until all M4N had dissolved or was uniformly suspended without any clumps being present. The M4N/EC mixture was heated at about 60° C. for about 30 min. (or longer if a larger volume of solution was desired, for example, 1 hr at 60° C. for 500 mL of the M4N/EC mixture), or longer as needed to ensure complete dissolution of M4N. […] The final M4N/EC solution was stored at room temperature and was kept protected from light.
A 10 mL solution of M4N at a concentration of about 50 mg/mL in sesame oil was made as follows. About 10 mL of sesame oil were added to a glass beaker containing a stir bar. The beaker was placed on a magnetic plate and the stir bar was set to stir at medium speed. About 500 mg of M4N were slowly added to the sesame oil in the center of the beaker with the aid of a spatula to prevent M4N from sticking to the beaker wall. The M4N/sesame oil mixture was stirred for about 2 hr or until all M4N had dissolved or was uniformly suspended without any clump being present. The M4N/sesame oil mixture was heated at about 60° C. for about 30 min. (or longer if a larger volume of solution was desired, for example, 1 hr at 60° C. for 500 mL of the M4N/sesame oil mixture), or longer as need to ensure complete dissolution of M4N. […]
For Dissolution After Cool Down in this document: key: N represents 'No'; Y represents 'Yes.'.

## COc1ccc(C[C@@H](C)[C@@H](C)Cc2ccc(OC)c(OC)c2)cc1OC [Formulation M4N, meso-1,4-bis(3,4-dimethoxyphenyl)-2,3-dimethylbutane]
40% Propylene Glycol (w/v), 10% Ethanol (v/v), M4N 10 mg/mL
  Dissolution After Rotation: N
47.5% (v/v) Tween ® 20, 47.5% (v/v) PEG 400, 2.5% (w/v) Beeswax 2.5% (w/v) PEG 3350, M4N 60 mg/mL
  Dissolution After Rotation: N
47.5% (v/v) Tween ® 20, 47.5% (v/v) PEG 400, 2.5% (w/v) Beeswax 2.5% (w/v) PEG 3350, M4N 60 mg/mL, after heating at 65° C.
  Dissolution After Cool Down: Y
47.5% (v/v) Tween ® 20, 47.5% (v/v) PEG 400, 2.5% (w/v) Beeswax 2.5% (w/v) PEG 3350, M4N 60 mg/mL, heating at 65° C.
  Dissolution After Heating: Y at 65 °C
47.5% Tween ® 20 (v/v), 47.5% PEG 400 (v/v), 5% Beeswax (w/v), M4N 200 mg/g
  Dissolution After Rotation: N
47.5% Tween ® 20 (v/v), 47.5% PEG 400 (v/v), 5% Beeswax (w/v), M4N 200 mg/g, after heating at 65° C.
  Dissolution After Cool Down: Waxy solid
47.5% Tween ® 20 (v/v), 47.5% PEG 400 (v/v), 5% Beeswax (w/v), M4N 200 mg/g, heating at 65° C.
  Dissolution After Heating: Y at 65 °C
50% (v/v) Tween ® 20 40% (v/v) PEG 400, 5% (w/v) Lechitin, 2.5% (w/v) PEG 3350, 2.5% (w/v) Beeswax, M4N 60 mg/mL
  Dissolution After Rotation: N
50% (v/v) Tween ® 20 40% (v/v) PEG 400, 5% (w/v) Lechitin, 2.5% (w/v) PEG 3350, 2.5% (w/v) Beeswax, M4N 60 mg/mL, after heating at 60° C.
  Dissolution After Cool Down: Creamy
50% (v/v) Tween ® 20 40% (v/v) PEG 400, 5% (w/v) Lechitin, 2.5% (w/v) PEG 3350, 2.5% (w/v) Beeswax, M4N 60 mg/mL, heating at 60° C.
  Dissolution After Heating: Y at 60 °C
50% Tween ® 20 (v/v), 50% PEG 400 (v/v), M4N 30 mg/ml
  Dissolution After Rotation: N
50% Tween ® 20 (v/v), 50% PEG 400 (v/v), M4N 30 mg/ml, after heating at 65° C.
  Dissolution After Cool Down: Y
50% Tween ® 20 (v/v), 50% PEG 400 (v/v), M4N 30 mg/ml, heating at 65° C.
  Dissolution After Heating: Y at 65 °C
50% Tween ® 20 (v/v), 50% PEG 400 (v/v), M4N 40 mg/ml
  Dissolution After Rotation: N
50% Tween ® 20 (v/v), 50% PEG 400 (v/v), M4N 40 mg/ml, after heating at 65° C.
  Dissolution After Cool Down: Y
50% Tween ® 20 (v/v), 50% PEG 400 (v/v), M4N 40 mg/ml, heating at 65° C.
  Dissolution After Heating: Y at 65 °C
50% Tween ® 20 (v/v), 50% PEG 400 (v/v), M4N 50 mg/ml
  Dissolution After Rotation: N
50% Tween ® 20 (v/v), 50% PEG 400 (v/v), M4N 50 mg/ml, after heating at 65° C.
  Dissolution After Cool Down: Y
50% Tween ® 20 (v/v), 50% PEG 400 (v/v), M4N 50 mg/ml, heating at 65° C.
  Dissolution After Heating: Y at 65 °C
50% Tween ® 20 (v/v), 50% PEG 400 (v/v), M4N 60 mg/ml
  Dissolution After Rotation: N
50% Tween ® 20 (v/v), 50% PEG 400 (v/v), M4N 60 mg/ml, after heating at 65° C.
  Dissolution After Cool Down: Y
50% Tween ® 20 (v/v), 50% PEG 400 (v/v), M4N 60 mg/ml, heating at 65° C.
  Dissolution After Heating: Y at 65 °C
50.3% (v/v) Tween ® 20, 44.6% (v/v) PEG 400, 2.4% (w/v) Beeswax, 2.4% (w/v) PEG 3350, 0.3% (w/v) Naringenin, M4N 60 mg/mL
  Dissolution After Rotation: N
50.3% (v/v) Tween ® 20, 44.6% (v/v) PEG 400, 2.4% (w/v) Beeswax, 2.4% (w/v) PEG 3350, 0.3% (w/v) Naringenin, M4N 60 mg/mL, after heating at 65° C.
  Dissolution After Cool Down: Y
50.3% (v/v) Tween ® 20, 44.6% (v/v) PEG 400, 2.4% (w/v) Beeswax, 2.4% (w/v) PEG 3350, 0.3% (w/v) Naringenin, M4N 60 mg/mL, heating at 65° C.
  Dissolution After Heating: Y at 65 °C
Ethanol 100%, M4N 10 mg/mL, heating at 37° C.
  Dissolution After Heating: N at
Gelucire ® 44/14 100%, M4N 60 mg/mL
  Dissolution After Rotation: N
Gelucire ® 44/14 100%, M4N 60 mg/mL, after heating at 60° C.
  Dissolution After Cool Down: Creamy
Gelucire ® 44/14 100%, M4N 60 mg/mL, heating at 60° C.
  Dissolution After Heating: Y at 60 °C
Gelucire ® 44/14 100%, M4N 200 mg/mL
  Dissolution After Rotation: N
Gelucire ® 44/14 100%, M4N 200 mg/mL, after heating at 60° C.
  Dissolution After Cool Down: Creamy
Gelucire ® 44/14 100%, M4N 200 mg/mL, heating at 60° C.
  Dissolution After Heating: Y at 60 °C
Gelucire ® 44/14 100%, M4N 300 mg/mL
  Dissolution After Rotation: N
Gelucire ® 44/14 100%, M4N 300 mg/mL, after heating at 60° C.
  Dissolution After Cool Down: Creamy
Gelucire ® 44/14 100%, M4N 300 mg/mL, heating at 60° C.
  Dissolution After Heating: Y at 60 °C
Glycerol 100%, M4N 1 mg/mL
  Dissolution After Cool-Down: N
Glycerol 100%, M4N 1 mg/mL, heating at 70° C.
  Dissolution After Heating: Y at
Glycerol 100%, M4N 10 mg/mL
  Dissolution After Cool-Down: N
Glycerol 100%, M4N 10 mg/mL, heating at 70° C.
  Dissolution After Heating: Y at
Glycerol 100%, M4N 20 mg/mL
  Dissolution After Cool-Down: N
Glycerol 100%, M4N 20 mg/mL, heating at 70° C.
  Dissolution After Heating: Y at
Glycerol Monoleate 100% (w/v), M4N 0.10 mg/ml
  Dissolution After Rotation: N
Glycerol Monoleate 100% (w/v), M4N 0.10 mg/ml, after heating at 60° C.
  Dissolution After Cool Down: Suspension
Glycerol Monoleate 100% (w/v), M4N 0.10 mg/ml, heating at 60° C.
  Dissolution After Heating: Y at 60 °C
Glycerol Monoleate 100% (w/v), M4N 0.25 mg/ml
  Dissolution After Rotation: N
Glycerol Monoleate 100% (w/v), M4N 0.25 mg/ml, after heating at 60° C.
  Dissolution After Cool Down: Suspension
